From the supplement of paper PMC10849652
The list shows a part of the results. Residues, ends and D or L forms follow the SMILES beside them. *: point of attachment. Cbz = O=C(OCc1ccccc1)*

Chains of the proteins cited; added tags and fusions are not shown. Lines headed by an entry give the natural chain unless they say otherwise; changes in a name come on top.
UniProt Q6UN15: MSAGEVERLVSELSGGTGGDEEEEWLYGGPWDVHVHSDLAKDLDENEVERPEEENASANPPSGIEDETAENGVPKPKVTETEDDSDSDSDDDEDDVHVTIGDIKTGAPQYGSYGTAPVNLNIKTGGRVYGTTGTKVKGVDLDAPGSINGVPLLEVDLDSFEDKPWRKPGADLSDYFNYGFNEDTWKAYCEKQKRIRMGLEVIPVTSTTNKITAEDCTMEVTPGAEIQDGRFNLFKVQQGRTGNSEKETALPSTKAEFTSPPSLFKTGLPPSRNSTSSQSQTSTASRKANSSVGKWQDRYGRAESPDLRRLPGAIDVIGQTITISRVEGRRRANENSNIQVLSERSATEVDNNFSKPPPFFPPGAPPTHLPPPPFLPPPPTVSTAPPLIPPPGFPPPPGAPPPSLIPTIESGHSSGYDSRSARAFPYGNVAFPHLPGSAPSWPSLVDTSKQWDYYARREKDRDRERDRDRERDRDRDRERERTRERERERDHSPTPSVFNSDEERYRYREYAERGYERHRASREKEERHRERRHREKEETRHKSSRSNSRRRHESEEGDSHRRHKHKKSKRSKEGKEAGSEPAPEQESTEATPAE
UniProt Q13451: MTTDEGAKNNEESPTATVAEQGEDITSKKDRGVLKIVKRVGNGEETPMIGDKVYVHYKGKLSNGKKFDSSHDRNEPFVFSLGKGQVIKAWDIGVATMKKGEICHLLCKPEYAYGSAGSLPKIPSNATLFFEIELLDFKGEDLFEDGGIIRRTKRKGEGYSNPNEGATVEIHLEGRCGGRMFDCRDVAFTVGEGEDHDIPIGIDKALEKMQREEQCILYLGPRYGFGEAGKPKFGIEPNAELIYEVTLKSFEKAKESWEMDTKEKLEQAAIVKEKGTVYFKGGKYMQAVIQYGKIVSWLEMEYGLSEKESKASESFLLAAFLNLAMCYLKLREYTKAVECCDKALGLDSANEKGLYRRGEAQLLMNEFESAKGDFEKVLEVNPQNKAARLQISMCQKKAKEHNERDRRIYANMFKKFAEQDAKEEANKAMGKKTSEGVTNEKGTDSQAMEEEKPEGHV
UniProt P62942, whole entry, looked up: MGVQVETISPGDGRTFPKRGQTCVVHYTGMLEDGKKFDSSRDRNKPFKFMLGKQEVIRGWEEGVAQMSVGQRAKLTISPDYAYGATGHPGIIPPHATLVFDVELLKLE
UniProt Q8NFF5: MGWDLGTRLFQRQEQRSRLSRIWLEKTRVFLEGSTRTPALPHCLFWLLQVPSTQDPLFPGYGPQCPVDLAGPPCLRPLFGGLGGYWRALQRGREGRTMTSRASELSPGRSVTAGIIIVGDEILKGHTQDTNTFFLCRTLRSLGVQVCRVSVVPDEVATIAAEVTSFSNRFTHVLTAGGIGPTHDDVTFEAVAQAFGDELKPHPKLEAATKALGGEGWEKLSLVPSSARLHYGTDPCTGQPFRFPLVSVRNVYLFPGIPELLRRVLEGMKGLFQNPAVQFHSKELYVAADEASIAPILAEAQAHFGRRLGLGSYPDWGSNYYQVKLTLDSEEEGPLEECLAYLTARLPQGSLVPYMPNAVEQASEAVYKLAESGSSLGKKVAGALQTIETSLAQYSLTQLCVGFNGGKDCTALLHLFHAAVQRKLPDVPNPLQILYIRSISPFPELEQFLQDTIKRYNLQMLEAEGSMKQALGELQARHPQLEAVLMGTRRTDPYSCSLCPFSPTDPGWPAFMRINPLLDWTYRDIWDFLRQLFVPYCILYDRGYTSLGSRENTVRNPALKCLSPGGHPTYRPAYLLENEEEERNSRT
UniProt O75955: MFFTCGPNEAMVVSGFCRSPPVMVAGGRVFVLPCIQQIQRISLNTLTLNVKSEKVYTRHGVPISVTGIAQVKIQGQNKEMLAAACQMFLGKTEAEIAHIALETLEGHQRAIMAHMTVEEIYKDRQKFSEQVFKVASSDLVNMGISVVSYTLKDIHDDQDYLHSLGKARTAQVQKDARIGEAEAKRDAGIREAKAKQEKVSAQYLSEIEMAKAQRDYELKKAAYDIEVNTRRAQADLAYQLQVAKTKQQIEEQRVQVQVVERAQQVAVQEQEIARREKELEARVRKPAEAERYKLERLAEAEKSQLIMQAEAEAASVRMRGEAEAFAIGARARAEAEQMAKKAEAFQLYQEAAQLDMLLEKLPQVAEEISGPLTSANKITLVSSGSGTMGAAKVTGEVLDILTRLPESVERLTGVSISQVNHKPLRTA
UniProt P02751, whole entry, looked up: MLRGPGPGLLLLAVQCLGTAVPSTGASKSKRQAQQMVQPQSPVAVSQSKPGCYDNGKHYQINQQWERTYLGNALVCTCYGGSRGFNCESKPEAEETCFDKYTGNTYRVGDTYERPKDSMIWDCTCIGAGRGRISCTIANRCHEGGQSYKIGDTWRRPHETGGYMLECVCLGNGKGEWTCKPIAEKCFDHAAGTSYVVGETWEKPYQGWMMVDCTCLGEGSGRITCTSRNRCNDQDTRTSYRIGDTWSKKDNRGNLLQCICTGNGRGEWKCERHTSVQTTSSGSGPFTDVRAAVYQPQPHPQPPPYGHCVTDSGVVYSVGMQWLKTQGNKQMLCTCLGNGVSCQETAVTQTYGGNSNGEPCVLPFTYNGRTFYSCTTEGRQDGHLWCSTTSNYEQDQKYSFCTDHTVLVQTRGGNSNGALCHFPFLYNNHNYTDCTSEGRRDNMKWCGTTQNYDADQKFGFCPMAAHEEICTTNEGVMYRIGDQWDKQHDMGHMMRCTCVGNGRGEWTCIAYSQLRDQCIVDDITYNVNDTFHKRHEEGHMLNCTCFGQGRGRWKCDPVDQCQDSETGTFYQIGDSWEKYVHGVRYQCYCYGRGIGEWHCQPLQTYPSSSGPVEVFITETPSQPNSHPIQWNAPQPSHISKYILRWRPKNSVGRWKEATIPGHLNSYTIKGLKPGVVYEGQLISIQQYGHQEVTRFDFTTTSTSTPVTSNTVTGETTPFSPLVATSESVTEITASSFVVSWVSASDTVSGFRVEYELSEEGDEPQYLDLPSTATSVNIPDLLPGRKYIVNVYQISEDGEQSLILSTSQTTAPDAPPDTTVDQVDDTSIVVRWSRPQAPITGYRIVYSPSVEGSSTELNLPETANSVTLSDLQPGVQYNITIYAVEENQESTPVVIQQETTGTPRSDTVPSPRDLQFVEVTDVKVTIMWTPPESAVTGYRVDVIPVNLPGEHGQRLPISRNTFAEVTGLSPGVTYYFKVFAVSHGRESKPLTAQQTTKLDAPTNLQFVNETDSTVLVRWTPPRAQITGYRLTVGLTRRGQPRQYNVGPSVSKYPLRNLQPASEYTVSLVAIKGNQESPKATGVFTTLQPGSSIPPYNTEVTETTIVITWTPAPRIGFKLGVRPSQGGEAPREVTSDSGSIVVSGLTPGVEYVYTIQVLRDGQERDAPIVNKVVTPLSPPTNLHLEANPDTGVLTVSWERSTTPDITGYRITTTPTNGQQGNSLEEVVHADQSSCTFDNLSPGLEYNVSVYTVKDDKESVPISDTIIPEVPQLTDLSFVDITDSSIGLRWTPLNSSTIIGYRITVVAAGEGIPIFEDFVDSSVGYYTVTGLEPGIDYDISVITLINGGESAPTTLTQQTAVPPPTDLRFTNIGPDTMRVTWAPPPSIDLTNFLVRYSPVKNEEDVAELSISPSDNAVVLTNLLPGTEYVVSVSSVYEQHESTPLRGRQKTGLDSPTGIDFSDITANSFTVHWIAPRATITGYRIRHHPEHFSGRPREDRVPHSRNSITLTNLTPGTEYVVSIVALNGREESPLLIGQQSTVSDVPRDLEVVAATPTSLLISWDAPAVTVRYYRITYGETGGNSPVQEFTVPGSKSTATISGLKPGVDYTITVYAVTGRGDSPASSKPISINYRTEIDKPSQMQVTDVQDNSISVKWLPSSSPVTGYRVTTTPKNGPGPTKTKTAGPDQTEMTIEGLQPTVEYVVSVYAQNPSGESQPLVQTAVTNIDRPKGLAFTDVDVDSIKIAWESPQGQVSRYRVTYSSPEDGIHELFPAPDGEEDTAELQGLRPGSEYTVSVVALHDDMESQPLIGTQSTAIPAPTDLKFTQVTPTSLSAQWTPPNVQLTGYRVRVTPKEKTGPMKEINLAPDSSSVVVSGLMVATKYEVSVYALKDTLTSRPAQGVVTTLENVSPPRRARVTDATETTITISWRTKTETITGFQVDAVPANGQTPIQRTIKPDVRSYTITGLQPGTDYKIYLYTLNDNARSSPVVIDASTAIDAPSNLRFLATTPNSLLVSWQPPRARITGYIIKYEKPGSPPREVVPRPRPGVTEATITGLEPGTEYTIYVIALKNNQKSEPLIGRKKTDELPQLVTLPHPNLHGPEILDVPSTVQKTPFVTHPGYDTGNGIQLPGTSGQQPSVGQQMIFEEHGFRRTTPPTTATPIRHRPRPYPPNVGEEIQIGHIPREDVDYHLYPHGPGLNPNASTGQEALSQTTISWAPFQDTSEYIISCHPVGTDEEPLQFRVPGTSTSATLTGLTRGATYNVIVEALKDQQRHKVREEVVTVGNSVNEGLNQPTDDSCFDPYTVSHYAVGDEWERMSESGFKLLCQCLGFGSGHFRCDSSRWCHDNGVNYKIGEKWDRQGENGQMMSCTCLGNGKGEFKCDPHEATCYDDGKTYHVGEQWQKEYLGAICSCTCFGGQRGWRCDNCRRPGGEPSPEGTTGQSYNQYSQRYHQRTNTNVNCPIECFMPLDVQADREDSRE
UniProt Q9Y5Y0: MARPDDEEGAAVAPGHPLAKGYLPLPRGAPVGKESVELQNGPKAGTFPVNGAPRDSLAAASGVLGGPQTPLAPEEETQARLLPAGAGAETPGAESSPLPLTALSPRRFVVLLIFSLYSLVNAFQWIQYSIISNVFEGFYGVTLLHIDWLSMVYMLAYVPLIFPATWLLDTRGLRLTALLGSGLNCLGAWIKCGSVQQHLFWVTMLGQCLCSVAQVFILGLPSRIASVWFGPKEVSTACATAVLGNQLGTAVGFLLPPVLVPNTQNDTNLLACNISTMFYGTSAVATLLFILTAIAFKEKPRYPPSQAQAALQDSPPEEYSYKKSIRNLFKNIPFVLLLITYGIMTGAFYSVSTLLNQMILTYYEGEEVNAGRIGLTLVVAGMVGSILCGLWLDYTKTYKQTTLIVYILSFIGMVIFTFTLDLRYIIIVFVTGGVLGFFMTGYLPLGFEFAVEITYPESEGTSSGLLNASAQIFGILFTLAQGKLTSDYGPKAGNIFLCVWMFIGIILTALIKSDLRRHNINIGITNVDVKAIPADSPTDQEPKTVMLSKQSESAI
UniProt Q9H479: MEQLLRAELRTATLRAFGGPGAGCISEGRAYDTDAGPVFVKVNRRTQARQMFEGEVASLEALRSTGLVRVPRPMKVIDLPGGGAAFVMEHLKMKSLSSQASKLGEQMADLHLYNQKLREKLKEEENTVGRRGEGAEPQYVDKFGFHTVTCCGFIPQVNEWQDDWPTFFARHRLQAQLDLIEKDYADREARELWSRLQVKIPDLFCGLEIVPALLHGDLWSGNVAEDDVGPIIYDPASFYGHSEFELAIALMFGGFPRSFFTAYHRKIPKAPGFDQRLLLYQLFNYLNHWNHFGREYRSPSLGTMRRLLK
UniProt Q96ND0: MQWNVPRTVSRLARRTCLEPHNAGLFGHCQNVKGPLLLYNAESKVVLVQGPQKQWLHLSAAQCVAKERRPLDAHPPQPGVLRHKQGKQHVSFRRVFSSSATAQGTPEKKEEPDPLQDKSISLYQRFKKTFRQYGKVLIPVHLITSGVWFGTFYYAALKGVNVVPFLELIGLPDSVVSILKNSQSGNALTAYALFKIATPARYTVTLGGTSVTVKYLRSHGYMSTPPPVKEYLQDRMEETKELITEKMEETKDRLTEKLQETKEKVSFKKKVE
UniProt P07954: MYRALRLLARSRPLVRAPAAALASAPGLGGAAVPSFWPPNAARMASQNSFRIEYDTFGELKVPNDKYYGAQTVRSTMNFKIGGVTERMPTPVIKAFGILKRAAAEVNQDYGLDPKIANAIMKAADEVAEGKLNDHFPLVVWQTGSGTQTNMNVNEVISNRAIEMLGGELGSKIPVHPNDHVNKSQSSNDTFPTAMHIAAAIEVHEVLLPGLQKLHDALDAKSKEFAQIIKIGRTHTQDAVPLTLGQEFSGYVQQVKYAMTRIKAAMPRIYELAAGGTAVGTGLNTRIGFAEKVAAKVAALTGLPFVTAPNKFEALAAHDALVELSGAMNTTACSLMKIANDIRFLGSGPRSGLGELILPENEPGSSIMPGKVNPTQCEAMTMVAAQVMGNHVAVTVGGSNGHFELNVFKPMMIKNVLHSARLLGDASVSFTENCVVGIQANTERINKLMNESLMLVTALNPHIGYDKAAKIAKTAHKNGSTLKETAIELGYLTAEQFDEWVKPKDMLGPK

Assays:
Test in all cases: log2 fold change, soluble protein after heating vs DMSO (PISA); higher = thermal stabilisation; K562 cells, 10 uM, 30 min; active = over 0.2 and 3.5 SD of the protein, either way, in both replicates (recomputed)
IRAK-1-4 Inhibitor I = compound: C1COCCN1CCN2C3=CC=CC=C3N=C2NC(=O)C4=CC(=CC=C4)[N+](=O)[O-] [IRAK-1-4 Inhibitor I]
How it was run: (§1)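 K562 cells at 2×10^6 cells/mL were treated with 10 μM compound for 30 min. Aliquots were heated for 3 min across 48°C-58°C, pooled, and extracted in PBS with 0.5% NP-40 at 4°C; soluble protein was the supernatant after 21,000xg for 90 min. Soluble protein was quantified by TMTpro 16plex LC-MS/MS with channel sums equalised, and reported as log2 fold change in thermal stability against DMSO controls, with values from duplicates.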

ibrutinib = compound: C=CC(=O)N1CCC[C@@H](n2nc(-c3ccc(Oc4ccccc4)cc3)c3c(N)ncnc32)C1 [ibrutinib]
How it was run: as §1

[1] = compound: CC(=O)c1cnc2ccc(-c3cc(Cl)c(O)c(Cl)c3)nc2c1N[C@H]1CC[C@H](CN(C)C)CC1
How it was run: as §1

ralimetinib = compound: CC(C)(C)Cn1c(N)nc2ccc(-c3[nH]c(C(C)(C)C)nc3-c3ccc(F)cc3)nc21 [ralimetinib]
How it was run: as §1

[2] = compound: CC(C)(O)CC(=O)NCCn1ccc2ncnc(Nc3ccc(Oc4cccc(C(F)(F)F)c4)c(Cl)c3)c21
How it was run: as §1

[3] = compound: CC(C)C1=C2N=C(C=C(N2N=C1)NCC3=CC=CC=C3)NCCCCCCN
How it was run: as §1

[4] = compound: CC(C)C[C@@H](C=O)NC(=O)[C@H](CC(C)C)NC(=O)[C@H](CC(C)C)NC(=O)OCc1ccccc1
How it was run: as §1

pinometostat = compound: CC(C)N(C[C@H]1O[C@@H](n2cnc3c(N)ncnc32)[C@H](O)[C@@H]1O)[C@H]1C[C@@H](CCc2nc3cc(C(C)(C)C)ccc3[nH]2)C1 [pinometostat]
How it was run: as §1

[5] = compound: CC1=C(C(CC(=O)N1)C2=CC=C(C=C2)C(F)(F)F)C(=O)NC3=C(C=C4C(=C3)C=NN4)F
How it was run: as §1

[6] = compound: CC1=C(C2=C(C=C1)C(=O)C3=CC=CC=C3N2CCCN)C
How it was run: as §1

[7] = compound: CC1=C(C=C(C=C1)NC(=O)C2=CC(=CC=C2)C(C)(C)C#N)NC3=CC4=C(C=C3)N=CN(C4=O)C
How it was run: as §1

[8] = compound: CC1=C(C=C(C=C1)NC(=O)C2=CC(=CC=C2)N(C)C)NC(=O)C3=CC=C(C=C3)O
How it was run: as §1

[9] = compound: CC1=CC=C(C=C1)SC2=C3C=C(SC3=CN=C2)C(=O)N
How it was run: as §1

[10] = compound: CC1=NC(=CC=C1)C2=C(N=C(N2)C(C)(C)C)C3=CC4=NC=CN=C4C=C3
How it was run: as §1

Nexturastat A = compound: CCCCN(Cc1ccc(C(=O)NO)cc1)C(=O)Nc1ccccc1 [Nexturastat A]
How it was run: as §1

vemurafenib = compound: CCCS(=O)(=O)Nc1ccc(F)c(C(=O)c2c[nH]c3ncc(-c4ccc(Cl)cc4)cc23)c1F [vemurafenib]
How it was run: as §1

[11] = compound: CCCS(=O)(=O)Nc1ccc(F)c(C(=O)c2c[nH]c3ncc(Cl)cc23)c1F
How it was run: as §1

[12] = compound: CCCc1cc(C)[nH]c(=O)c1CNC(=O)c1cc(-c2ccnc(N3CCN(C)CC3)c2)cc2c1cnn2C(C)C
How it was run: as §1

givinostat = compound: CCN(CC)Cc1ccc2cc(COC(=O)Nc3ccc(C(=O)NO)cc3)ccc2c1 [givinostat]
How it was run: as §1

barasertib = compound: CCN(CCCOc1ccc2c(Nc3cc(CC(=O)Nc4cccc(F)c4)[nH]n3)ncnc2c1)CCOP(=O)(O)O [barasertib]
How it was run: as §1

Measured: log2 fold change

FAM234A (UniProt Q9H0X4)
inactive: IRAK-1-4 Inhibitor I -0.02 | ibrutinib 0.056 | [1] -0.053 | ralimetinib -0.009 | [2] 0.011 | [3] 0.103 | [4] 0.031 | pinometostat -0.024 | [5] 0.023 | [6] 0.012 | [7] 0.03 | [8] 0.055 | [9] -0.03 | [10] 0.01 | Nexturastat A -0.022 | vemurafenib -0.028 | [11] -0.034 | [12] 0.149 | givinostat 0.008 | barasertib -0.014

FKBP9 (UniProt O95302)
inactive: IRAK-1-4 Inhibitor I -0.01 | ibrutinib 0.005 | [1] -0.013 | ralimetinib 0.001 | [2] 0.029 | [3] -0.013 | [4] 0.03 | pinometostat 0.033 | [5] 0.012 | [6] 0.033 | [7] 0.003 | [8] -0.021 | [9] -0.079 | [10] -0.061 | Nexturastat A 0.014 | vemurafenib -0.059 | [11] -0.017 | [12] 0.027 | givinostat -0.047 | barasertib 0.009

FIP1L1 (UniProt Q6UN15)
inactive: IRAK-1-4 Inhibitor I 0.006 | ibrutinib 0.048 | [1] -0.043 | ralimetinib -0.007 | [2] 0.136 | [3] 0.02 | [4] 0.11 | pinometostat 0.01 | [5] 0.089 | [6] -0.014 | [7] -0.096 | [8] 0.062 | [9] -0.04 | [10] -0.023 | Nexturastat A 0.142 | vemurafenib -0.042 | [11] -0.021 | [12] 0.034 | givinostat 0.017 | barasertib -0.057

FKBP5 (UniProt Q13451)
inactive: IRAK-1-4 Inhibitor I -0.129 | ibrutinib -0.094 | [1] 0.019 | ralimetinib 0.091 | [2] -0.082 | [3] -0.244 | [4] 0.09 | pinometostat 0.083 | [5] -0.038 | [6] 0.022 | [7] -0.052 | [8] -0.039 | [9] 0.069 | [10] 0.017 | Nexturastat A 0.109 | vemurafenib 0.061 | [11] 0.134 | [12] 0.058 | givinostat 0.115 | barasertib 0.095

Quoted from above (2 entries):
FKBP9 (UniProt O95302)
inactive: IRAK-1-4 Inhibitor I -0.01 | ibrutinib 0.005 | [1] -0.013 | ralimetinib 0.001 | [2] 0.029 | [3] -0.013 | [4] 0.03 | pinometostat 0.033 | [5] 0.012 | [6] 0.033 | [7] 0.003 | [8] -0.021 | [9] -0.079 | [10] -0.061 | Nexturastat A 0.014 | vemurafenib -0.059 | [11] -0.017 | [12] 0.027 | givinostat -0.047 | barasertib 0.009

FIP1L1 (UniProt Q6UN15)
inactive: IRAK-1-4 Inhibitor I 0.006 | ibrutinib 0.048 | [1] -0.043 | ralimetinib -0.007 | [2] 0.136 | [3] 0.02 | [4] 0.11 | pinometostat 0.01 | [5] 0.089 | [6] -0.014 | [7] -0.096 | [8] 0.062 | [9] -0.04 | [10] -0.023 | Nexturastat A 0.142 | vemurafenib -0.042 | [11] -0.021 | [12] 0.034 | givinostat 0.017 | barasertib -0.057

More entries:

FKBP1A (UniProt P62942)
inactive: IRAK-1-4 Inhibitor I 0.022 | ibrutinib 0.094 | [1] -0.053 | ralimetinib -0.01 | [2] 0.006 | [3] 0.108 | [4] 0.033 | pinometostat 0.024 | [5] -0.007 | [6] 0.211 | [7] 0.026 | [8] -0.029 | [9] 0.118 | [10] -0.022 | Nexturastat A -0.023 | vemurafenib 0.029 | [11] 0.127 | [12] -0.04 | givinostat 0.067 | barasertib -0.064

FLAD1 (UniProt Q8NFF5)
inactive: IRAK-1-4 Inhibitor I 0.044 | ibrutinib 0.035 | [1] -0.02 | ralimetinib -0.112 | [2] -0.008 | [3] -0.017 | [4] 0.029 | pinometostat -0.032 | [5] -0.016 | [6] 0.006 | [7] -0.182 | [8] -0.025 | [9] -0.015 | [10] 0.024 | Nexturastat A 0.01 | vemurafenib -0.043 | [11] -0.016 | [12] -0.018 | givinostat -0.006 | barasertib 0.03

FLOT1 (UniProt O75955)
inactive: IRAK-1-4 Inhibitor I -0.123 | ibrutinib -0.091 | [1] -0.043 | ralimetinib 0.22 | [2] 0.011 | [3] -0.166 | [4] 0.093 | pinometostat 0.097 | [5] 0.023 | [6] -0.068 | [7] 0.024 | [8] -0.067 | [9] 0.007 | [10] -0.125 | Nexturastat A 0.297 | vemurafenib -0.089 | [11] -0.021 | [12] 0.077 | givinostat 0.097 | barasertib 0.022

FBXO4 (UniProt Q9UKT5)
inactive: IRAK-1-4 Inhibitor I 0.054 | ibrutinib 0.02 | [1] -0.025 | ralimetinib 0.016 | [2] -0.149 | [3] -0.052 | [4] -0.021 | pinometostat -0.001 | [5] 0.014 | [6] 0.149 | [7] -0.093 | [8] 0.003 | [9] 0.054 | [10] 0.024 | Nexturastat A -0.048 | vemurafenib 0.035 | [11] 0.122 | [12] -0.047 | givinostat -0.013 | barasertib 0.002

FN1 isoform 1 (UniProt P02751)
inactive: IRAK-1-4 Inhibitor I 0.02 | ibrutinib 0.119 | [1] 0.037 | ralimetinib -0.097 | [2] 0.133 | [3] 0.104 | [4] 0.075 | pinometostat -0.059 | [5] 0.03 | [6] -0.082 | [7] -0.026 | [8] 0.057 | [9] 0.052 | [10] 0.157 | Nexturastat A 0.021 | vemurafenib 0.064 | [11] -0.042 | [12] -0.173 | givinostat -0.065 | barasertib 0.038

FBLL1 (UniProt A6NHQ2)
inactive: IRAK-1-4 Inhibitor I -0.048 | ibrutinib 0.119 | [1] -0.025 | ralimetinib 0.127 | [2] 0.08 | [3] 0.28 | [4] 0.116 | pinometostat 0.261 | [5] -0.018 | [6] 0.16 | [7] 0.013 | [8] -0.026 | [9] -0.188 | [10] -0.003 | Nexturastat A 0.422 | vemurafenib -0.069 | [11] 0.024 | [12] 0.096 | givinostat 0.122 | barasertib -0.069

FLVCR1 (UniProt Q9Y5Y0)
inactive: IRAK-1-4 Inhibitor I -0.01 | ibrutinib -0.012 | [1] -0.086 | ralimetinib -0.073 | [2] 0.006 | [3] 0.138 | [4] 0.035 | pinometostat 0.017 | [5] 0.075 | [6] 0.06 | [7] 0.086 | [8] 0.003 | [9] -0.004 | [10] -0.042 | Nexturastat A -0.064 | vemurafenib -0.019 | [11] 0.002 | [12] -0.033 | givinostat -0.017 | barasertib 0.007

FBXL18 isoform 4 (UniProt Q96ME1)
inactive: IRAK-1-4 Inhibitor I 0.055 | ibrutinib -0.061 | [1] -0.004 | ralimetinib -0.038 | [2] -0.065 | [3] -0.039 | [4] 0 | pinometostat 0.029 | [5] 0.037 | [6] 0.045 | [7] 0.04 | [8] -0.006 | [9] 0.045 | [10] 0.008 | Nexturastat A -0.04 | vemurafenib 0.043 | [11] 0.068 | [12] -0.014 | givinostat 0.057 | barasertib 0.037

FN3K (UniProt Q9H479)
inactive: IRAK-1-4 Inhibitor I 0.026 | ibrutinib 0.046 | [1] -0.019 | ralimetinib 0.011 | [2] 0 | [3] 0.03 | [4] -0.056 | pinometostat -0.023 | [5] 0.002 | [6] -0.008 | [7] 0.037 | [8] -0.008 | [9] 0.041 | [10] 0.015 | Nexturastat A -0.013 | vemurafenib 0.017 | [11] 0.031 | [12] 0.056 | givinostat -0.065 | barasertib -0.019

FAM210A (UniProt Q96ND0)
inactive: IRAK-1-4 Inhibitor I 0.041 | ibrutinib 0.072 | [1] -0.021 | ralimetinib -0.045 | [2] 0.006 | [3] 0.078 | [4] -0.002 | pinometostat -0.029 | [5] -0.015 | [6] -0.067 | [7] 0.054 | [8] -0.059 | [9] -0.031 | [10] -0.056 | Nexturastat A 0.008 | vemurafenib -0.021 | [11] -0.029 | [12] -0.003 | givinostat 0.056 | barasertib -0.015

FASN (UniProt P49327)
inactive: IRAK-1-4 Inhibitor I 0 | ibrutinib -0.037 | [1] 0.044 | ralimetinib 0.008 | [2] -0.082 | [3] -0.017 | [4] -0.011 | pinometostat -0.015 | [5] -0.011 | [6] 0.025 | [7] 0.022 | [8] -0.021 | [9] 0.021 | [10] 0.045 | Nexturastat A -0.091 | vemurafenib 0.016 | [11] 0.064 | [12] -0.004 | givinostat 0.002 | barasertib 0.007

FH (UniProt P07954)
inactive: IRAK-1-4 Inhibitor I 0.028 | ibrutinib -0.025 | [1] -0.045 | ralimetinib -0.027 | [2] -0.037 | [3] -0.023 | [4] -0.051 | pinometostat -0.018 | [5] -0.035 | [6] -0.006 | [7] 0.025 | [8] -0.015 | [9] -0.035 | [10] 0.016 | Nexturastat A -0.105 | vemurafenib 0.036 | [11] 0.013 | [12] -0.01 | givinostat -0.032 | barasertib -0.01
